“And” between values parts separate entries of the source, which are not always exact repeats. Equal values may be shown once. In all, about 340,000 compounds went through this assay and about 6,200 (1.8%) were called active. The shares of active, inactive and inconclusive entries below differ from those in the screen. Calls come from the whole dose curve; as a rule, active = well fitted activation curve with a large enough effect; inconclusive = small, poorly fitted or top-dose-only effect; inactive = no such curve, though single readings can be large or run the other way. Potencies beside an inconclusive call are fits to weak or partial responses and may not hold up.
Experiment: A quantitative high throughput screen for small molecules that induce DNA re-replication in SW480 colon adenocarcinoma cells. For re-replication activation: % of control where 0% means no effect. Note: nearly all actives have a fitted effect of over 55% in size.
Conditions: Hoechst DNA content imaging, 48 h; re-replication activation: at 46.1 µM (top of the series)
How it was run: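 Cells (250 per well) received 23 nL compound or DMSO by pin tool and were kept 48 hr at 37 C, 5% CO2. Nuclei were then stained with Hoechst for 40 min and scanned for DNA content.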
Potency is the fitted concentration of half-maximal effect.

| SMILES | re-replication activation | Potency |
| --- | --- | --- |
| COc1ccc(N2CC(C)Cn3c2nc2c3c(=O)n(Cc3ccc(F)cc3)c(=O)n2C)c(OC)c1 (stereo not drawn) | inactive: 6.45% |  |
| C=CCNC(=O)/C(C#N)=C/c1ccccc1[N+](=O)[O-] |  | inconclusive: 16.4 µM [activator, partial curve, poor fit] |
| N=c1sccn1CC(=O)NCCc1ccc(Cl)cc1Cl |  | inconclusive: 0.461 µM [activator, full curve, poor fit] |
| COc1ccc(S(=O)(=O)N2CCC3(CC2)CC(=O)c2ccccc2O3)cc1OC |  | inconclusive: 16.4 µM [activator, single point] |
| COc1cc(C(=O)NC2CC(C)(C)CC(C)(C)C2)ccc1OC1CCN(C(C)=O)CC1 | inactive: 2.02% |  |
| Cc1cc(/C=C2/NC(=S)NC2=O)c(C)n1-c1cccnc1 | inactive: -4.1% |  |
| COCCC(=O)N1CCC(Oc2ccc(C(=O)N(C)C(C)c3ccon3)cc2)CC1 (stereo not drawn) |  | inconclusive: 25.9 µM [activator, single point] |
| O=[N+]([O-])c1cc(Br)c(Nc2ccccc2)c([N+](=O)[O-])c1 |  | inconclusive: 2.31 µM [activator, full curve, poor fit] |
| O=C(c1cc(COc2ccc(F)cc2Cl)on1)N1C[C@H]2CC[C@H]1C2 |  | inconclusive: 20.6 µM [activator, single point] |
| CN1CCN(/N=C/c2nc(-c3cccc([N+](=O)[O-])c3)n3ccccc23)CC1 |  | inconclusive: 0.259 µM [activator, partial curve, poor fit] |
| C=C1CCC[C@]2(C)C[C@H]3OC(=O)C(CN4CCCCC4CO)[C@H]3CC12 (stereo partly drawn) |  | inconclusive: 25.9 µM [activator, partial curve, poor fit] |
| COc1cccc(CN2C(=O)CCC2(C)C(=O)NC2CCCC2)c1 (stereo not drawn) |  | inconclusive: 32.6 µM [activator, partial curve, poor fit] |
| CCN(CCCNC(=O)CCn1c(=S)[nH]c2cc3c(cc2c1=O)OCO3)c1cccc(C)c1 |  | inconclusive: 20.6 µM [activator, single point] |
| CCc1nc2nc(C)c(NS(=O)(=O)c3ccc(CC(C)C)cc3)c(=O)n2[nH]1 |  | inconclusive: 0.794 µM [activator, full curve, poor fit] |
| CCc1cccc(C)c1NC(=O)CCNC(=O)c1cccc(C)c1 |  | inconclusive: 20.6 µM [activator, partial curve, poor fit] |
| CCOc1ccc(N/C(=N/c2nc(C)cc(C)n2)NC(C)=O)cc1 | inactive: -90.8% |  |
| CN(C)C(=O)CNC(=O)CN1C(=O)NC2(CCCc3sccc32)C1=O (stereo not drawn) | inactive: 1.21% |  |
| COc1cccc(CN(C)C(=O)CNC(=O)c2ccc3c(c2)OCO3)c1OC | inactive: -9.07% |  |
| CCC1C(=O)NCCN1Cc1nc(-c2ccc(C)s2)oc1C (stereo not drawn) | inactive: 1.36% |  |
| O=C(O)CCCNC(=O)/C(=C\c1ccc(Cl)cc1)NC(=O)c1ccc(Br)cc1 | inactive: -3.28% |  |
| CCCC1S/C(=N/N=C/c2ccc(OC)cc2)N(Cc2ccc(OC)cc2)C1=O (stereo not drawn) | inactive: -1% |  |
| COc1ccccc1NC(=O)CSc1nnc(Cc2cccn2C)n1CCc1ccccc1 | inactive: 2.95% |  |
| COC(=O)NC(C)N1C(=O)C2C3C=CC(C3)C2C1=O (stereo not drawn) | inactive: -1.01% |  |

| SMILES | re-replication activation | Potency |
| --- | --- | --- |
| CC(C)C[C@H]1CNC(=S)N1CC1CCCN1C[C@H](Cc1ccc(O)cc1)N1C[C@H](Cc2ccccc2)N(CC2CCCCCC2)C1=S (stereo partly drawn) |  | inconclusive: 16.4 µM [activator, single point] |
| Cc1ccc(NS(=O)(=O)c2ccc3c(c2)CCC(=O)N3)cc1 | inactive: 11.5% |  |
| COc1ccc(S(=O)(=O)N2CCN(C(=O)C3CCC3)CC2)cc1 | inactive: 4.27% |  |
| CN(C)S(=O)(=O)c1cccc(NC(=S)NC2CCCCC2)c1 |  | inconclusive: 0.651 µM [activator, single point] |
| CCOC(=O)N1CCN(C(=O)c2cc3cc(Cl)ccc3[nH]2)CC1 | inactive: -12.2% |  |
| NC(=O)CC[C@H](NC(=O)c1ccc(F)cc1)C(=O)OCC(=O)NCc1ccc2c(c1)OCO2 | inactive: -3.1% |  |
| COc1ccc2[nH]c(C)c(CCNC(=S)Nc3ccccc3C)c2c1 |  | inconclusive: 9.2 µM [activator, partial curve, poor fit] |
| CN1C(=O)/C(=C/c2cccc(Cl)c2)Sc2ccc(C(=O)N3CCCC3)cc21 |  | inconclusive: 5.17 µM [activator, single point] |
| CCOC(=O)c1sc(N)c(C(N)=O)c1C |  | inconclusive: 25.9 µM [activator, partial curve, poor fit] |
| Cc1ccc(NC(=O)Cc2ccsc2)cc1Cl | inactive: -0.665% |  |
| Cc1cccc(-n2c(Cc3ccccc3)nnc2SCc2ccc([N+](=O)[O-])cc2)c1 | inactive: 0.403% |  |
| CCN(C(=O)c1cc2ccccc2oc1=O)c1cccc(C)c1 | inactive: -0.348% |  |
| O=C(C1CCN(C2CCN(Cc3ccsc3)CC2)CC1)N1CCOCC1 |  | inconclusive: 32.6 µM [activator, partial curve, poor fit] |
| CCCc1cc(NCC2CCCO2)n2c(nc3ccccc32)c1C#N (stereo not drawn) |  | inconclusive: 14.6 µM [activator, partial curve] |
| Cc1ccc(C(=O)Nc2ccccc2C(=O)NCc2ccco2)cc1 | inactive: 0.402% |  |
| Cc1ccc(N/C(N)=N/c2nc(C)cc(N3CCCCC3)n2)c(C)c1 |  | inconclusive: 29.1 µM [activator, single point] |
| Nc1c(S(=O)(=O)c2ccccc2)c2nc3ccccc3nc2n1CCN1CCOCC1 |  | inconclusive: 29.1 µM [activator, single point] |
| S=C(NCCc1ccccc1)Nc1ccccc1 |  | inconclusive: 14.6 µM [activator, single point] |
| O=C(Nc1cccc2ncccc12)c1ccc(-c2ccc(Br)cc2)o1 | inactive: 0.49% |  |
| CCc1ccc(OC)c(S(=O)(=O)Nc2ccc(Cc3ccncc3)cc2)c1 |  | inconclusive: 29.1 µM [activator, single point] |
| Cc1cc(OC(C)C)nc(NCc2ccccc2)n1 |  | inconclusive: 25.9 µM [activator, single point] |
| CC(=O)N1CCc2cc(S(=O)(=O)CCC(=O)Nc3ccc(Cl)cc3F)ccc21 |  | inconclusive: 6.51 µM [activator, single point] |

| SMILES | re-replication activation | Potency |
| --- | --- | --- |
| CCCC/C(C)=N/NC(=O)c1cn(-c2ccccc2)nc1-c1ccccc1 |  | inconclusive: 29.1 µM [activator, single point] |
| CCN(CC1COc2ccccc2O1)C(=S)NC1CC2CCC1C2 (stereo not drawn) | inactive: 1.09% |  |
| NC(=O)CSc1nc2scc(-c3ccc(Cl)cc3)c2c(=O)n1Cc1ccccc1 | inactive: 20.3% |  |
| Cc1cc(O)c(-c2cc(C(=O)Nc3ccc(S(=O)(=O)N4CCOCC4)cc3)[nH]n2)cc1C |  | inconclusive: 29.1 µM [activator, single point] |
| CCOC(=O)N1CCC(=C2c3ccc(Cl)cc3CCc3cccnc32)CC1 |  | inconclusive: 326 nM [activator, single point] and inconclusive: 29.1 µM [activator, single point] |
| CCN(CC(=O)NC1CCS(=O)(=O)C1)S(=O)(=O)c1ccc(Cl)cc1C(F)(F)F (stereo not drawn) | inactive: -9.33% |  |
| CCCCC(O)(CCCC)C(=O)NN(C(=O)CCl)c1ccccc1 |  | inconclusive: 29.1 µM [activator, single point] |
| CC(C)(C)c1ccc(OC(=O)CN2C(=O)C3C4CCC(C4)C3C2=O)cc1 (stereo not drawn) |  | inconclusive: 1.46 µM [activator, single point] |
| Cn1c(-[n+]2c(-c3ccccc3)cc(-c3ccccc3)cc2-c2ccccc2)nc2c([N+](=O)[O-])cccc21 |  | inconclusive: 23.1 µM [activator, single point] |
| COc1ccccc1-n1nnnc1SCC(=O)NC1CC1 |  | inconclusive: 29.1 µM [activator, single point] |
| Cn1cc(CN2CCCC(C(=O)c3ccc(-c4ccccc4)c(F)c3)C2)cn1 (stereo not drawn) |  | inconclusive: 29.1 µM [activator, single point] |
| CCCCN1C=C(C(=O)OC)C(c2ccccc2C(F)(F)F)C(C(=O)OC)=C1 |  | active: 9.2 µM |
| C=CCN=c1scc(-c2ccccc2)n1/N=C/c1ccccn1 |  | inconclusive: 4.11 µM [activator, full curve, poor fit] |
| CC(=O)NCCNC(=O)c1ccc(NC2=NC3CS(=O)(=O)CC3S2)cc1 (stereo not drawn) |  | inconclusive: 23.1 µM [activator, single point] |
| CCCCNC(=O)/C(C#N)=C/c1ccc(-c2ccc(S(=O)(=O)N3CCOCC3)cc2)o1 |  | inconclusive: 4.11 µM [activator, full curve] |
| Cc1noc(C)c1NC(=O)N(C)C[C@H]1Oc2c(NC(=O)c3ccncc3)cccc2C(=O)N([C@H](C)CO)C[C@@H]1C | inactive: -1.38% |  |
| CCOC(=O)CSc1nnc(-c2ccc3ncccc3c2)n1C |  | inconclusive: 2.91 µM [activator, partial curve, poor fit] |
| Cc1ccc(-c2nc(C(=O)NCC3CCCO3)cc3c2[nH]c2ccccc23)cc1 (stereo not drawn) |  | inconclusive: 29.1 µM [activator, single point] |
| CCS(=O)(=O)c1nc(S(=O)(=O)c2ccc(C)cc2)c(NCCCN(C)C)s1 |  | inconclusive: 29.1 µM [activator, single point] |
| Cc1cc(OCC(=O)Nc2sc3c(c2C#N)CC(C)(C)NC3(C)C)c(C(C)C)cc1Cl | inactive: 12.2% |  |
| O=C(/C=C/c1ccc([N+](=O)[O-])cc1)c1ccco1 |  | inconclusive: 11.6 µM [activator, single point] |
| C[C@H](CO)N1C[C@H](C)[C@@H](CN(C)C)Oc2c(NC(=O)Cc3ccccc3)cccc2C1=O |  | inconclusive: 7.31 µM [activator, partial curve, poor fit] |

17 compounds out of the list, ordered by length of the SMILES, rising.

| SMILES | re-replication activation | Potency |
| --- | --- | --- |
| S=C(NCCc1ccccc1)Nc1ccccc1 |  | inconclusive: 14.6 µM [activator, single point] |
| CCOC(=O)c1sc(N)c(C(N)=O)c1C |  | inconclusive: 25.9 µM [activator, partial curve, poor fit] |
| CCN(C(=O)c1cc2ccccc2oc1=O)c1cccc(C)c1 | inactive: -0.348% |  |
| CCCc1cc(NCC2CCCO2)n2c(nc3ccccc32)c1C#N (stereo not drawn) |  | inconclusive: 14.6 µM [activator, partial curve] |
| O=C(C1CCN(C2CCN(Cc3ccsc3)CC2)CC1)N1CCOCC1 |  | inconclusive: 32.6 µM [activator, partial curve, poor fit] |
| CCOc1ccc(N/C(=N/c2nc(C)cc(C)n2)NC(C)=O)cc1 | inactive: -90.8% |  |
| Cc1ccc(N/C(N)=N/c2nc(C)cc(N3CCCCC3)n2)c(C)c1 |  | inconclusive: 29.1 µM [activator, single point] |
| CC(=O)NCCNC(=O)c1ccc(NC2=NC3CS(=O)(=O)CC3S2)cc1 (stereo not drawn) |  | inconclusive: 23.1 µM [activator, single point] |
| O=C(c1cc(COc2ccc(F)cc2Cl)on1)N1C[C@H]2CC[C@H]1C2 |  | inconclusive: 20.6 µM [activator, single point] |
| Nc1c(S(=O)(=O)c2ccccc2)c2nc3ccccc3nc2n1CCN1CCOCC1 |  | inconclusive: 29.1 µM [activator, single point] |
| CCS(=O)(=O)c1nc(S(=O)(=O)c2ccc(C)cc2)c(NCCCN(C)C)s1 |  | inconclusive: 29.1 µM [activator, single point] |
| C=C1CCC[C@]2(C)C[C@H]3OC(=O)C(CN4CCCCC4CO)[C@H]3CC12 (stereo partly drawn) |  | inconclusive: 25.9 µM [activator, partial curve, poor fit] |
| CCc1nc2nc(C)c(NS(=O)(=O)c3ccc(CC(C)C)cc3)c(=O)n2[nH]1 |  | inconclusive: 0.794 µM [activator, full curve, poor fit] |
| Cc1cc(O)c(-c2cc(C(=O)Nc3ccc(S(=O)(=O)N4CCOCC4)cc3)[nH]n2)cc1C |  | inconclusive: 29.1 µM [activator, single point] |
| Cn1c(-[n+]2c(-c3ccccc3)cc(-c3ccccc3)cc2-c2ccccc2)nc2c([N+](=O)[O-])cccc21 |  | inconclusive: 23.1 µM [activator, single point] |
| Cc1noc(C)c1NC(=O)N(C)C[C@H]1Oc2c(NC(=O)c3ccncc3)cccc2C(=O)N([C@H](C)CO)C[C@@H]1C | inactive: -1.38% |  |
| CC(C)C[C@H]1CNC(=S)N1CC1CCCN1C[C@H](Cc1ccc(O)cc1)N1C[C@H](Cc2ccccc2)N(CC2CCCCCC2)C1=S (stereo partly drawn) |  | inconclusive: 16.4 µM [activator, single point] |
